The source of these data is article PMC11317155.

This assay has as its target T1, YlmH with a C-terminal FLAG-tag (YlmH-FLAG) (B. subtilis) (UniProt P71020).
T1 sequence: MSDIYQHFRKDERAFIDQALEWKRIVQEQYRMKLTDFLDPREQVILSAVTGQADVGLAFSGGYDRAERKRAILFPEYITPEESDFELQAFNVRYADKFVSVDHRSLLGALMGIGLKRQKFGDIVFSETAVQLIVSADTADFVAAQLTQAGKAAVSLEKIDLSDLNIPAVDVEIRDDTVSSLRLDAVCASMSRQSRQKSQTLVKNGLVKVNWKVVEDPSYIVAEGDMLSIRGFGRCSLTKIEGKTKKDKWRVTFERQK
As to the kind of experiment: cryo-EM structure; single particle cryo-EM of ex vivo YlmH-FLAG complexes eluted from anti-Flag beads; State 1 (YlmH, P-tRNA, 50S) and State 2 (YlmH, RqcH, A- and P-tRNA, 50S).

Results are given in words; binding and its absence hold for the method and conditions named. Some entries that bind do so weakly or less than the wild type. Tags and fused reporters may be left off the sequences shown.

B1: RqcH (protein, UniProt O34693 1-570)
chain: MSFDGMFTYGMTHELNEKIMGGRITKIHQPYKHDVIFHIRAKGKNQKLLLSAHPSYSRVHITAQAYENPSEPPMFCMLLRKHIEGGFIEKIEQAGLDRIMIFHIKSRNEIGDETVRKLYVEIMGRHSNIILTDAAENVIIDGLKHLSPSMNSYRTVLPGQDYKLPPAQDKISPLEASEDDILRHLSFQEGRLDKQIVDHFSGVSPLFAKEAVHRAGLANKVTLPKALLALFAEVKEHRFIPNITTVNGKEYFYLLELTHLKGEARRFDSLSELLDRFYFGKAERDRVKQQAQDLERFVVNERKKNANKIKKLEKTLEYSENAKEFQLYGELLTANLYMLKKGDKQAEVINYYDEESPTITIPLNPNKTPSENAQAYFTKYQKAKNSVAVVEEQIRLAQEEIEYFDQLIQQLSSASPRDISEIREELVEGKYLRPKQQKGQKKQKPHNPVLETYESTSGLTILVGKNNRQNEYLTTRVAARDDIWLHTKDIPGSHVVIRSSEPDEQTIMEAATIAAYFSKAKDSSSVPVDYTKIRHVKKPNGAKPGFVTYDSQHTVFVTPDADTVIKLKKS
With B1, the binding entry is reported as “binds”.
